Earlier results as cited in publication PMC8288134, “Synthesis, potential antitumor activity, cell cycle analysis, and multitarget mechanisms of novel hydrazones incorporating a 4-methylsulfonylbenzene scaffold: a molecular docking study” (Journal of Enzyme Inhibition and Medicinal Chemistry, 2021).

Key:
Design in all cases: method as in https://dtp.cancer.gov/dtpstandard/dwindex/index.jsp
Details in all cases: reference drugs, ref https://dtp.cancer.gov/dtpstandard/dwindex/index.jsp; cited from earlier work
MCF7 = system: MCF7
PC-3 = system: PC-3
EKVX = system: EKVX
SW-620 = system: SW-620
SNB-75 = system: SNB-75
OVCAR-3 = system: OVCAR-3

## COc1cc2ncnc(Nc3ccc(F)c(Cl)c3)c2cc1OCCCN1CCOCC1 [Gefitinib, gefitinib]
MCF7
  GI50: 5.01 µM
PC-3
  GI50: 5.01 µM
EKVX
  GI50: 0.0501 µM
SW-620
  GI50: 5.01 µM
SNB-75
  GI50: 5.01 µM
OVCAR-3
  GI50: 5.01 µM
